# Measured values: article PMC6430831
# Residue numbers refer to the chain shown, from its start. No constants are given. Whether binding was seen depends on the method and setting. Binding seen in cells or lysates may run through a third protein. Some results given as binding are weak or reduced against the parent protein; the word gives no strength. Where a sequence is shown, tags or fusion partners need not be part of it.
# T1: FLAG-tagged GEF-H1 (Human pCMV6-Entry-GEF-H1), wild type (human) (UniProt Q92974)
# T1 sequence: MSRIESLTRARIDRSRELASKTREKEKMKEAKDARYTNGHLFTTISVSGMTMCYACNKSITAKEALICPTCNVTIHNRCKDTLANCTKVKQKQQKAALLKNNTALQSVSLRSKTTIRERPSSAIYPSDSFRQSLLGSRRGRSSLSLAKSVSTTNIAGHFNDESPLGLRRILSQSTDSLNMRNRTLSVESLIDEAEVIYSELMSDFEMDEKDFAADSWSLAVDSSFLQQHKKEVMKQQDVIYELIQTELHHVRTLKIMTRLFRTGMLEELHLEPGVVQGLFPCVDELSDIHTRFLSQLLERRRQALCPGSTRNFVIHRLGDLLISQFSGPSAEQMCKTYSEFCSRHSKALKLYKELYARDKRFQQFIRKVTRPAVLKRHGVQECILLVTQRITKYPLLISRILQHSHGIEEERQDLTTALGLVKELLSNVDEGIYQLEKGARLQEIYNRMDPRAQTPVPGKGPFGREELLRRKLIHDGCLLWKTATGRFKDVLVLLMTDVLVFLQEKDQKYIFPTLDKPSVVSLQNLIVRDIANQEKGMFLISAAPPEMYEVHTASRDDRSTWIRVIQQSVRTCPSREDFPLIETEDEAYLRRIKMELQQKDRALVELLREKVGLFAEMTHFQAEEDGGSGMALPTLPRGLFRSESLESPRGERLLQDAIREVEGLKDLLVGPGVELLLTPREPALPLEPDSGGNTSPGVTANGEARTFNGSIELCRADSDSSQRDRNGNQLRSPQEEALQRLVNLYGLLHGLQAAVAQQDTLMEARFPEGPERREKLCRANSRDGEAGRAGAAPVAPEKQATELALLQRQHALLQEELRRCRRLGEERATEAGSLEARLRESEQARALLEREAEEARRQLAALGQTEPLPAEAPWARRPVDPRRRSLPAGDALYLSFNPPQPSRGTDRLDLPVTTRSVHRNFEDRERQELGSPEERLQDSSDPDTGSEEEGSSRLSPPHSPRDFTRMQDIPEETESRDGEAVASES
# T2: GEF-H1 (S399A) variant, hyper-phosphorylated at S886 (human) (UniProt Q92974)
# T2 sequence (chain, significantly elevated phosphorylation at S886 (detected by a specific antibody)): T1 sequence with S399A
# B1: human IKKε (pcDNA3-huIKKε-flag) (enzyme, UniProt Q14164 1-716)
# chain: MQSTANYLWHTDDLLGQGATASVYKARNKKSGELVAVKVFNTTSYLRPREVQVREFEVLRKLNHQNIVKLFAVEETGGSRQKVLVMEYCSSGSLLSVLESPENAFGLPEDEFLVVLRCVVAGMNHLRENGIVHRDIKPGNIMRLVGEEGQSIYKLTDFGAARELDDDEKFVSVYGTEEYLHPDMYERAVLRKPQQKAFGVTVDLWSIGVTLYHAATGSLPFIPFGGPRRNKEIMYRITTEKPAGAIAGAQRRENGPLEWSYTLPITCQLSLGLQSQLVPILANILEVEQAKCWGFDQFFAETSDILQRVVVHVFSLSQAVLHHIYIHAHNTIAIFQEAVHKQTSVAPRHQEYLFEGHLCVLEPSVSAQHIAHTTASSPLTLFSTAIPKGLAFRDPALDVPKFVPKVDLQADYNTAKGVLGAGYQALRLARALLDGQELMFRGLHWVMEVLQATCRRTLEVARTSLLYLSSSLGTERFSSVAGTPEIQELKAAAELRSRLRTLAEVLSRCSQNITETQESLSSLNRELVKSRDQVHEDRSIQQIQCCLDKMNFIYKQFKKSRMRPGLGYNEEQIHKLDKVNFSHLAKRLLQVFQEECVQKYQASLVTHGKRMRVVHETRNHLRLVGCSVAACNTEAQGVQESLSKLLEELSHQLLQDRAKGAQASPPPIAPYPSPTRKDLLLHMQELCEGMKLLASDLLDNNRIIERLNRVPAPPDV
# B2: human IKKβ (pcDNA3.1-huIKKβ-HA) (enzyme, UniProt O14920 1-756)
# chain: MSWSPSLTTQTCGAWEMKERLGTGGFGNVIRWHNQETGEQIAIKQCRQELSPRNRERWCLEIQIMRRLTHPNVVAARDVPEGMQNLAPNDLPLLAMEYCQGGDLRKYLNQFENCCGLREGAILTLLSDIASALRYLHENRIIHRDLKPENIVLQQGEQRLIHKIIDLGYAKELDQGSLCTSFVGTLQYLAPELLEQQKYTVTVDYWSFGTLAFECITGFRPFLPNWQPVQWHSKVRQKSEVDIVVSEDLNGTVKFSSSLPYPNNLNSVLAERLEKWLQLMLMWHPRQRGTDPTYGPNGCFKALDDILNLKLVHILNMVTGTIHTYPVTEDESLQSLKARIQQDTGIPEEDQELLQEAGLALIPDKPATQCISDGKLNEGHTLDMDLVFLFDNSKITYETQISPRPQPESVSCILQEPKRNLAFFQLRKVWGQVWHSIQTLKEDCNRLQQGQRAAMMNLLRNNSCLSKMKNSMASMSQQLKAKLDFFKTSIQIDLEKYSEQTEFGITSDKLLLAWREMEQAVELCGRENEVKLLVERMMALQTDIVDLQRSPMGRKQGGTLDDLEEQARELYRRLREKPRDQRTEGDSQEMVRLLLQAIQSFEKKVRVIYTQLSKTVVCKQKALELLPKVEEVVSLMNEDEKTVVRLQEKRQKELWNLLKIACSKVRGPVSGSPDSMNASRLSQPGQLMSQPSTASNSLPEPAKKSEELVAEAHNLCTLLENAIQDTVREQDQSFTALDWSWLQTEEEEHSCLEQAS
# Tests used:
# [1] = target: T1, FLAG-tagged GEF-H1 (Human pCMV6-Entry-GEF-H1), wild type (human); assay: co-IP; HEK293T cells transfected with the indicated plasmids (GEF-H1 WT or variants with IRF5, IKKε, IKKβ; with or without RIPK2 or NOD2); precipitated with anti-GEF-H1, protein G agarose; lysis buffer 1% NP-40, 20 mM Tris-HCl pH 7.4, 150 mM NaCl; partners detected by western blot
# [2] = target: T2, GEF-H1 (S399A) variant, hyper-phosphorylated at S886 (human); assay: as above
Binder,binding [1],binding [2]
B1,binds,no binding
B2,binds,binds
